Reference: patent US20240132579A1 (DOTBIO PTE, published 2024)
These are yes or no findings as the source states them, for the method shown. Some results given as binding are weak or reduced against the parent protein; the word gives no strength.

T1: biotinylated murine VEGF-164 (Acro Biosystem) (mouse) (UniProt Q00731)
T1 sequence (biotinylated (site not stated), looked up): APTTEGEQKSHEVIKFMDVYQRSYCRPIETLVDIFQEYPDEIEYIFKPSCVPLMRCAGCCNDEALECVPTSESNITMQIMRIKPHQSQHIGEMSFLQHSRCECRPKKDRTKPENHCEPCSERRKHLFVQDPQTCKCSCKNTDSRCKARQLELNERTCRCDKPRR

T2: Human VEGF-121 (Acro Biosystems) (human, UniProt P15692 207-395)
T2 construct: Bought protein; also called human VEGFA
T2 sequence: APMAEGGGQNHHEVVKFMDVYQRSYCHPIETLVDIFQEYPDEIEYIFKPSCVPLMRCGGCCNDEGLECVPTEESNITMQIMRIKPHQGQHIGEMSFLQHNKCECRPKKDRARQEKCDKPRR


Tests used:
[1] = target: Biotinylated human VEGF-165 (Acro Biosystem) (human) (UniProt P15692); experiment: BLI
[2] = target: T1, biotinylated murine VEGF-164 (Acro Biosystem) (mouse); experiment: BLI
[3] = target: Biotinylated human VEGF-165 (Acro Biosystem) (human) (UniProt P15692); experiment: BLI (conclusion of the examples)
[4] = target: T1, biotinylated murine VEGF-164 (Acro Biosystem) (mouse); experiment: BLI (conclusion of the examples)
[5] = target: Biotinylated human VEGF-165 (Acro Biosystem) (human) (UniProt P15692); experiment: BLI at 250 nM after heat challenge
[6] = target: Biotinylated human VEGF-165 (Acro Biosystem) (human) (UniProt P15692); experiment: BLI at 250 nM after 1 h heat challenge
[7] = target: Biotinylated human VEGF-165 (Acro Biosystem) (human) (UniProt P15692); experiment: BLI, biotinylated human VEGF-165 on streptavidin tips, DotBody in solution
[8] = target: T1, biotinylated murine VEGF-164 (Acro Biosystem) (mouse); experiment: BLI, biotinylated murine VEGF-164 on streptavidin tips, DotBody in solution
[9] = target: T2, Human VEGF-121 (Acro Biosystems); experiment: competitive ELISA: VEGFR1 coated on the plate, human VEGF-121 pre-mixed with the binder; the blocked partner is VEGFR1
[10] = target: T2, Human VEGF-121 (Acro Biosystems); experiment: competitive ELISA: VEGFR1 coated on the plate, human VEGF-121 at 0.5 nM pre-mixed with the binder; the blocked partner is VEGFR1
[11] = target: Biotinylated human VEGF-165 (Acro Biosystem) (human) (UniProt P15692); experiment: BLI, biotinylated human VEGF-165 on streptavidin tips; DotBody at 250 nM after 1 h at room temperature, 60, 70 or 80 °C and centrifugation

| binding [1] | binding [2] | binding [3] | binding [4] | binding [5] | binding [6] | binding [7] | binding [8] | binding [9] | binding [10] | binding [11] | Binder |
| --- | --- | --- | --- | --- | --- | --- | --- | --- | --- | --- | --- |
| binds | binds | binds | binds | binds | binds | binds | binds | binds | binds | binds | anti-VEGFA DotBody 16C2.1 (VHH, Humanized, stabilized autonomous VH domain (single domain antibody, 'DotBody') derived from the trastuzumab VH) VHH: EVQLVESGGGLVQPGGSLRLSCAISGFSLAATDIDWVRQAPGKGLEWVARIFSPSDFTDYADSVKGRFTISADTSKNTVYLQMNSLRAEDTAVYYCGRPDTYAYNIFLDTPTYNALHYRGQGTLVTVSS |
| binds | binds | binds | binds | binds | binds | binds | binds | binds |  | binds | anti-VEGFA DotBody 21A5.1 (VHH) VHH: EVQLVESGGGLVQPGGSLRLSCAISGFSLVETDIDWVRQAPGKGLEWVARIFLPSGSTYYADSVKGRFTISADTSKNTVYLQMNSLRAEDTAVYYCGSPDTYAYNIFLDTPAYKGLSYRGQGTLVTVSS |
